These are yes or no findings as the source states them, for the method shown. Binding seen in cells or lysates may run through a third protein. A yes stands for co-enrichment or nearness to the bait. Other partners may have been found. Where a sequence is shown, tags or fusion partners need not be part of it.
Molecular target: T1, DUF581-9-myc (Arabidopsis thaliana) (UniProt O80506)
T1 sequence: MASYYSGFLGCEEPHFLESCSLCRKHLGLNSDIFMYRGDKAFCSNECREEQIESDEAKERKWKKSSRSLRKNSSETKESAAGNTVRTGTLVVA
Assay: affinity purification with mass spectrometry

B1: KIN10 (protein, UniProt Q38997 1-512)
chain: MDGSGTGSRSGVESILPNYKLGRTLGIGSFGRVKIAEHALTGHKVAIKILNRRKIKNMEMEEKVRREIKILRLFMHPHIIRLYEVIETPTDIYLVMEYVNSGELFDYIVEKGRLQEDEARNFFQQIISGVEYCHRNMVVHRDLKPENLLLDSKCNVKIADFGLSNIMRDGHFLKTSCGSPNYAAPEVISGKLYAGPEVDVWSCGVILYALLCGTLPFDDENIPNLFKKIKGGIYTLPSHLSPGARDLIPRMLVVDPMKRVTIPEIRQHPWFQAHLPRYLAVPPPDTVQQAKKIDEEILQEVINMGFDRNHLIESLRNRTQNDGTVTYYLILDNRFRASSGYLGAEFQETMEGTPRMHPAESVASPVSHRLPGLMEYQGVGLRSQYPVERKWALGLQSRAHPREIMTEVLKALQDLNVCWKKIGHYNMKCRWVPNSSADGMLSNSMHDNNYFGDESSIIENEAAVKSPNVVKFEIQLYKTRDDKYLLDLQRVQGPQFLFLDLCAAFLAQLRVL
**Q.** How did the binding turn out when B1 was run?
**A.** The binding was “binds”.

From doi:10.1101/2022.03.17.484690
